End groups of sequences in plain letters are not given here.

This series can be described thus: general procedure: Fmoc solid-phase peptide synthesis. The following applies: whole synthesis, acetate, several disulfide bridges, sequence written open.

As to CLLCRALIKRIQALIPKGGRLLPQLVCRLVLRCS, the “final purity (method not given)” value was over 89% and the isolated yield worked out at 1.7%.
